Results from publication PMC3825632.
Results are given in words; binding and its absence hold for the method and conditions named. In cells and extracts the contact can be indirect. Some binding calls cover weakened binding; strength is not graded here.

By UniProt entry, the sequences of proteins in these tests, tags left out.
UniProt Q9ESJ4: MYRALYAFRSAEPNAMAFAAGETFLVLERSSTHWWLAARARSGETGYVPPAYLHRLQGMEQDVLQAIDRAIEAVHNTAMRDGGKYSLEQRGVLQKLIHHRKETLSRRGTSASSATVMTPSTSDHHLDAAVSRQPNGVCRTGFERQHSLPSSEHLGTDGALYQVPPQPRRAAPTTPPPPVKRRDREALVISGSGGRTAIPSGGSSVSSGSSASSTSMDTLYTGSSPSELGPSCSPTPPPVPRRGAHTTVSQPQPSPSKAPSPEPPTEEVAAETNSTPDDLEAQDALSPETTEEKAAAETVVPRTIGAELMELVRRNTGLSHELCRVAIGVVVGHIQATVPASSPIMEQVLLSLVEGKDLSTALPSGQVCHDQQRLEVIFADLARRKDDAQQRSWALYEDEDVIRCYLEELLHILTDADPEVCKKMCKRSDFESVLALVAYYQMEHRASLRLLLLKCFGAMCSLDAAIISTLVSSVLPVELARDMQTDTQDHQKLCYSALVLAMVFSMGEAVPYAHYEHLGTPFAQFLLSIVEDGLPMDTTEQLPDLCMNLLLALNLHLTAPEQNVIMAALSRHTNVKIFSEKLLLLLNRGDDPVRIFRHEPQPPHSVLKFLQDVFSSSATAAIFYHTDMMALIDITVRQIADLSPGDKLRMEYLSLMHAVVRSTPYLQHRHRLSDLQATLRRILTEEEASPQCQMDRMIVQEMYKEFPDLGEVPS

Target: T1, STEP61 (striatal-enriched protein tyrosine phosphatase) (mouse (endogenous in mouse brain)) (UniProt P54830)
T1 sequence: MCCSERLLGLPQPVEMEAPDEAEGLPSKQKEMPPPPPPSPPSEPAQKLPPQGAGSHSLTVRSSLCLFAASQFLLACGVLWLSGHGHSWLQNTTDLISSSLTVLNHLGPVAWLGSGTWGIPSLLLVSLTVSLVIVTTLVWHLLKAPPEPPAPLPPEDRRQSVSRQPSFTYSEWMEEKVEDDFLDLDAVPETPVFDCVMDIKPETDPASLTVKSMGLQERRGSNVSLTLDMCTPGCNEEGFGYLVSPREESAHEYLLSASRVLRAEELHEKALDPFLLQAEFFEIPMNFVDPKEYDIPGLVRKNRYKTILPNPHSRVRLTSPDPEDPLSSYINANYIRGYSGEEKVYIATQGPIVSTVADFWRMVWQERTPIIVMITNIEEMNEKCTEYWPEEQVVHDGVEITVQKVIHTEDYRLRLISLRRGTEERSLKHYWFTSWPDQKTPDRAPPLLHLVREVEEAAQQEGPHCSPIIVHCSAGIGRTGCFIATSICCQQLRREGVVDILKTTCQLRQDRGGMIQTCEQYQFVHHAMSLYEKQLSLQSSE
Experiment: co-IP; mouse brain crude synaptosomal (P2) fraction extracted in modified RIPA buffer; immunoprecipitated with anti-STEP antibody or normal mouse serum

For SPIN90 (from UniProt Q9ESJ4 1-714), the binding was “binds”.
